In patent publication US20250249098A1, “CRYOPRESERVATION OF NK CELL PRODUCTS FOR OFF-THE-SHELF IMMUNOTHERAPY” (BOARD OF REGENTS, THE UNIVERSITY OF TEXAS SYSTEM, priority 2022, published 2025):
At least one compound was matched to its structure with a doubt left.

Experiments:
SKOV3 cells = assay: SKOV3 ovarian cancer mouse model treated with TROP2-targeting CAR NK cells; format: in vivo, mice; conditions: TROP2-targeting CAR NK cells treated before freezing
MM1S cells = assay: MM1S multiple myeloma NSG mouse model treated with CD70-targeting CAR NK cells; format: in vivo, mice; conditions: CAR NK cells cultured 13 days, treated 24 h before freezing
Raji tumor cells = assay: Raji-NSG mouse model treated with thawed NK cells; format: in vivo; conditions: NK cells treated pre-cryopreservation; Raji-NSG mice

Cc1nc(Nc2ncc(C(=O)Nc3c(C)cccc3Cl)s2)cc(N2CCN(CCO)CC2)n1 [Dasatinib]
engraftment and subject survival vs fresh NK cells (SKOV3 cells): engraft, and improve subject survival at levels comparable to fresh NK cells | survival vs fresh NK cells (MM1S cells): increase survival at comparable levels to those of fresh NK cells | survival (Raji tumor cells): improved survival rates
